Experimental data: PubChem BioAssay AID1671195 (Yale University, 2021)

- Aim: 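Regulators of LDL receptor activity judged by labelled LDL uptake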 (primary screen)
- Cells: human Huh7 hepatoma cells
- Reagents: siRNA pool against human genes, 18 nM
- Duration: about 2 to 2.5 days of knockdown, then 8 h LDL uptake
- Treatment: DiI-labelled LDL at 30 µg/ml for 8 h, in lipoprotein-deficient serum medium
- Measured: 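Per-cell DiI-LDL intensity by automated imaging; well means scaled to the plate median and given as a robust z-score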
- Reading the numbers: robust z-score: higher = more LDL uptake after knockdown
- Rule for the call: 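Active when two or more replicates show a robust z-score above 2 or below -2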
The whole screen tested about 22,000 reagents; this is an unselected part. Over the whole deposit, about 1,510 (6.9%) were called active. 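Active includes knockdowns raising or lowering LDL uptake; positive z-scores mean more uptake, negative mean less.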 Reagent sequences are not shown.

Gene	robust z-score, replicate 1	robust z-score, replicate 2	robust z-score, replicate 3	Outcome
LOC400144 (retired record)	0.312	-0.508	-0.821	inactive
LOC440506 (retired record)	0.527	0.11	0.0505	inactive
MGST2	1.97	1.56	2.7	active
GMPR	-0.603	0.926	0.0108	inactive
KCTD20	1.06	2.02	2.16	active
GPHN	0.512	-0.745	1.1	inactive
MALRD1	-1.71	-1.93	-1.83	inactive
CD300LG	-0.694	-0.262	-0.544	inactive
EPHA8	-0.476	-0.261	-0.227	inactive
EEF1AKMT3	-0.00634	0.639	0.26	inactive
PSG7	-0.206	0.0424	0.993	inactive
DHRS7	-1.75	-1.86	-1.96	inactive
H2AJ	0.218	2.07	-0.904	inactive
FHAD1	0.497	-1.49	-0.848	inactive
DNMT3A	0.643	0.0263	-0.0592	inactive
LOC440322 (retired record)	-0.219	-0.0502	-0.336	inactive
LOC441352 (retired record)	-0.161	-0.568	-0.234	inactive
PLCD3	-0.798	-0.688	-0.914	inactive
NPTX2	0.197	-0.414	0.405	inactive
LINC01931	-0.901	-0.914	-0.874	inactive
BLOC1S2	0.0113	-0.203	-0.29	inactive
SULT1A2	3.11	2.94	3.8	active
PLEK2	-1.53	-1.75	-2.01	inactive
MYCBPAP	0.105	1.19	1.01	inactive
DNA2	-1.44	-1.89	-1.82	inactive
FAR2P1	-0.985	-0.527	-0.658	inactive
DDX49	-1.72	-1.35	-1.12	inactive
FOXN1	-0.967	-1.5	-1.57	inactive
GALR1	-0.375	-1.21	-1.21	inactive
ARPC4	-0.649	-0.431	-0.562	inactive
NDFIP1	0.275	0.659	0.365	inactive
NXN	-0.463	-0.926	0.01	inactive
ABCC3	-0.587	-0.539	-0.689	inactive
IQCH	0.325	1.49	1.03	inactive
PRODHLP	0.712	0.913	0.654	inactive
PAGE4	1.35	-0.461	0.116	inactive
VPS37D	-0.583	-0.534	-0.53	inactive
USP31	0.328	0.684	0.655	inactive
TADA1	0.315	0.71	0.613	inactive
TMEM187	-0.97	-0.847	-0.711	inactive
ZNF468	0.6	0.384	0.405	inactive
KLHDC7A	0.748	1.1	1.51	inactive
FAM91A1	0.358	0.0318	0.928	inactive
SCAMP5	-0.0397	0.135	-0.226	inactive
EZRP1	-0.169	-0.156	0.264	inactive
PEX5	-1.75	-1.5	-2.04	inactive
MAP4K3	1.94	-0.25	0.531	inactive
CCDC62	-1.21	-1.46	-1.5	inactive
PPIAP59	0.993	0.511	0.459	inactive
UBL4B	0.41	0.581	-0.00801	inactive
USP47	1.27	1.15	1.08	inactive
GUCY2EP	-0.681	0.847	0.178	inactive
DRC3	1.47	0.103	0.893	inactive
HIGD1A	0.506	0.48	-0.658	inactive
ZNF280B	-0.0171	-0.607	-0.221	inactive
STK35	1.56	-0.367	0.821	inactive
DOCK10	2.53	2.46	2.96	active
CLK3	-0.269	0.315	0.405	inactive
UNK	3.01	3.16	2.46	active
CHD8	0.372	0.431	0.148	inactive
STX17-DT	-0.556	-0.0903	0.000173	inactive
UBL4A	-0.0334	0.366	0.38	inactive
SMCO2	1.83	1.21	1.59	inactive
PER2	-0.708	-0.153	-0.205	inactive
GNAQ	0.0869	-0.815	-0.281	inactive
PDCD1LG2	-1.11	-1.64	-1.6	inactive
FIGNL1	1.33	2.54	1.69	inactive
GTSCR1	-0.428	-0.529	-0.0628	inactive

Entries listed so far whose target name starts with H or h (2):
Gene	robust z-score, replicate 1	robust z-score, replicate 2	robust z-score, replicate 3	Outcome
H2AJ	0.218	2.07	-0.904	inactive
HIGD1A	0.506	0.48	-0.658	inactive
